According to the supplement of paper PMC6411743:
± gives the standard deviation of the averaged measurements. Only a part is listed here, and it is no random draw.

Protein sequences, listed by entry. Tags and fused reporters are not part of them. Lines headed by an entry give the natural chain unless they say otherwise; changes in a name come on top.
UniProt Q9Y448: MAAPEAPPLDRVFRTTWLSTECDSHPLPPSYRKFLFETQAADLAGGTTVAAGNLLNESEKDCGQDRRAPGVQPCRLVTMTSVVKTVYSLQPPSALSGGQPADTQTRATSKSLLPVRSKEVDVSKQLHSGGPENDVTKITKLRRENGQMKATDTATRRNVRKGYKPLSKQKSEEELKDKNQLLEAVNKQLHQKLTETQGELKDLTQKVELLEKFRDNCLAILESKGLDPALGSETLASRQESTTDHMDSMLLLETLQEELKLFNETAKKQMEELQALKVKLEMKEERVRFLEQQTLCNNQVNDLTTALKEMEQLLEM
UniProt Q9Y2V2: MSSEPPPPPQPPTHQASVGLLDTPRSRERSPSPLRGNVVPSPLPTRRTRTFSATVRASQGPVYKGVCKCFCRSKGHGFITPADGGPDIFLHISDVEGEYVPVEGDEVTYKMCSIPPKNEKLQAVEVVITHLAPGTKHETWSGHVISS
UniProt Q9Y4R8, whole entry: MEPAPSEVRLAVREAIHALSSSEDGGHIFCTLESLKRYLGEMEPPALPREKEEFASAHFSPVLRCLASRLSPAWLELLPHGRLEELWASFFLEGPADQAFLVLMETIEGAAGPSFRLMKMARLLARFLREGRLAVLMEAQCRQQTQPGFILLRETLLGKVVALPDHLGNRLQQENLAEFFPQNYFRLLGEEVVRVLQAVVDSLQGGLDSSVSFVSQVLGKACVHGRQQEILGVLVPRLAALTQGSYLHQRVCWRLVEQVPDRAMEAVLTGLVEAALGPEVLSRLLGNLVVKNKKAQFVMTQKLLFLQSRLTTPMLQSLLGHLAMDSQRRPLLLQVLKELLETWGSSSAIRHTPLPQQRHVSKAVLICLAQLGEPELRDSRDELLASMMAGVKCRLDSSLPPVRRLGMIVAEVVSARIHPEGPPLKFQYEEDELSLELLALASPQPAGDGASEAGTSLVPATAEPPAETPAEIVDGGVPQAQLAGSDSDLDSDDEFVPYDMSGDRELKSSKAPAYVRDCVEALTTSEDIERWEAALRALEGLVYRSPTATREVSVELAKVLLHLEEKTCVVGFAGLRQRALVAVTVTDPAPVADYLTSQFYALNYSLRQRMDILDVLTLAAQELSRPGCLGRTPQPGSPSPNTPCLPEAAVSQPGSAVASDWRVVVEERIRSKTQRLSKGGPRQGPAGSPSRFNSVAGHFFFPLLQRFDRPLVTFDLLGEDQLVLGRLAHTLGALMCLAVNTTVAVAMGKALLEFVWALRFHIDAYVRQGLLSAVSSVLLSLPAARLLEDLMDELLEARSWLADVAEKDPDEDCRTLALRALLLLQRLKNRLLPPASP
UniProt Q9Y6X5: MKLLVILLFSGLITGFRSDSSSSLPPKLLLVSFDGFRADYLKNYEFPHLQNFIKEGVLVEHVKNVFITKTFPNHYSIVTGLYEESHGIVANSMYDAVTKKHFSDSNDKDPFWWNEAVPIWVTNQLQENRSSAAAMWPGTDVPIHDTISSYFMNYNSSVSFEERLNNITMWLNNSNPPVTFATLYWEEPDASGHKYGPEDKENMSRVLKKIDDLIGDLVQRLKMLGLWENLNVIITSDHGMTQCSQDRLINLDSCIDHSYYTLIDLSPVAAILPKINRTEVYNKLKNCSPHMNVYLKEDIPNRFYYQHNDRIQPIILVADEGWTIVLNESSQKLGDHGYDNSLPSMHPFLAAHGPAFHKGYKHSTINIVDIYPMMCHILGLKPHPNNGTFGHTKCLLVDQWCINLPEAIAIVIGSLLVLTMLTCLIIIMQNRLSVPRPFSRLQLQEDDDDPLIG
UniProt Q9Y2B0: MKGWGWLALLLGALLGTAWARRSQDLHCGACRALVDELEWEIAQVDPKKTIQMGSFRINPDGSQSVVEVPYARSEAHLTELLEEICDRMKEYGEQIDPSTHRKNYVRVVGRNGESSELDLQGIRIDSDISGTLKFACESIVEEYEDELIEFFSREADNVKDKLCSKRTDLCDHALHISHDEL
UniProt Q9Y333: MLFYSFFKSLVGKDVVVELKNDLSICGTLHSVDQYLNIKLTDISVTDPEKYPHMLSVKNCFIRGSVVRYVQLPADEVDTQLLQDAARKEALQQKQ
UniProt Q9Y3A4: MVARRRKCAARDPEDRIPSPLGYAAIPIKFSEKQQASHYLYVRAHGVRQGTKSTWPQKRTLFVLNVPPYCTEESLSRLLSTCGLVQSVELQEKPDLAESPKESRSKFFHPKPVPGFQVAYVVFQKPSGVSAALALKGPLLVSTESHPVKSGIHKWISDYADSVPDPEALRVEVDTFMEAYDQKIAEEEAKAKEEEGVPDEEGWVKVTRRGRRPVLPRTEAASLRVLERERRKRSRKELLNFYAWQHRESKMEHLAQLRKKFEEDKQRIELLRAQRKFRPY
UniProt Q9Y2S6, whole entry: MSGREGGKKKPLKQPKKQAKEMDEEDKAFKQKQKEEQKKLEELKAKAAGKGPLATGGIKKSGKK
UniProt Q9Y679: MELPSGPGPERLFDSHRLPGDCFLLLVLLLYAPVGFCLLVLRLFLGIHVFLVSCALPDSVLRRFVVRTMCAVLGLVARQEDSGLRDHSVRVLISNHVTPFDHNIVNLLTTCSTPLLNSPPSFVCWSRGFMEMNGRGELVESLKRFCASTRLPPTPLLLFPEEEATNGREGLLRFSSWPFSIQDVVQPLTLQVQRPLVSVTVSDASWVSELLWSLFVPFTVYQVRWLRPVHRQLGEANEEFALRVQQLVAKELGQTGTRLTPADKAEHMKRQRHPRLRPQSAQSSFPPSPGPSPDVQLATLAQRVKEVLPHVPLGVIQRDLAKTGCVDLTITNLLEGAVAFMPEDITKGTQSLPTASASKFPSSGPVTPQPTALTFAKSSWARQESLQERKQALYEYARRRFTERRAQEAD
UniProt Q9Y3I1: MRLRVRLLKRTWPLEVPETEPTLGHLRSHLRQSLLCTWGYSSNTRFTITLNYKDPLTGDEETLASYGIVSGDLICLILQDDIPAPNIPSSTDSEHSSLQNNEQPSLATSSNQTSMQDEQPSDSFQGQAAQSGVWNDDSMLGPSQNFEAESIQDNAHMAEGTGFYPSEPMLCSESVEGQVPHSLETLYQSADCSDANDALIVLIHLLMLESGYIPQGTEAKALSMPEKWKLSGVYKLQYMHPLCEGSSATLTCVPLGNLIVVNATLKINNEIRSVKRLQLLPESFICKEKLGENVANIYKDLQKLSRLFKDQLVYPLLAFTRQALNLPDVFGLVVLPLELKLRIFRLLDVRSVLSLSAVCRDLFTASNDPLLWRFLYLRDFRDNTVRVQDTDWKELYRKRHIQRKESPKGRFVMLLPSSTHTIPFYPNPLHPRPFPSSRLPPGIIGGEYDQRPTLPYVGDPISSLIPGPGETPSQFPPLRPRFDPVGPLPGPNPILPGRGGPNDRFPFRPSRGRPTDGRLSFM
UniProt Q9Y680: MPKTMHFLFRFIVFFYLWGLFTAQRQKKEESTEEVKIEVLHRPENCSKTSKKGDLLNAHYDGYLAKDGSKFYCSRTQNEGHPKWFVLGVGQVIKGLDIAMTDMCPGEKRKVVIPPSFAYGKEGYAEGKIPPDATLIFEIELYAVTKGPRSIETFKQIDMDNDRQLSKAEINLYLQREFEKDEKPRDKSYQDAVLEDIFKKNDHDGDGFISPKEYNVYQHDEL
UniProt Q9Y2Q0: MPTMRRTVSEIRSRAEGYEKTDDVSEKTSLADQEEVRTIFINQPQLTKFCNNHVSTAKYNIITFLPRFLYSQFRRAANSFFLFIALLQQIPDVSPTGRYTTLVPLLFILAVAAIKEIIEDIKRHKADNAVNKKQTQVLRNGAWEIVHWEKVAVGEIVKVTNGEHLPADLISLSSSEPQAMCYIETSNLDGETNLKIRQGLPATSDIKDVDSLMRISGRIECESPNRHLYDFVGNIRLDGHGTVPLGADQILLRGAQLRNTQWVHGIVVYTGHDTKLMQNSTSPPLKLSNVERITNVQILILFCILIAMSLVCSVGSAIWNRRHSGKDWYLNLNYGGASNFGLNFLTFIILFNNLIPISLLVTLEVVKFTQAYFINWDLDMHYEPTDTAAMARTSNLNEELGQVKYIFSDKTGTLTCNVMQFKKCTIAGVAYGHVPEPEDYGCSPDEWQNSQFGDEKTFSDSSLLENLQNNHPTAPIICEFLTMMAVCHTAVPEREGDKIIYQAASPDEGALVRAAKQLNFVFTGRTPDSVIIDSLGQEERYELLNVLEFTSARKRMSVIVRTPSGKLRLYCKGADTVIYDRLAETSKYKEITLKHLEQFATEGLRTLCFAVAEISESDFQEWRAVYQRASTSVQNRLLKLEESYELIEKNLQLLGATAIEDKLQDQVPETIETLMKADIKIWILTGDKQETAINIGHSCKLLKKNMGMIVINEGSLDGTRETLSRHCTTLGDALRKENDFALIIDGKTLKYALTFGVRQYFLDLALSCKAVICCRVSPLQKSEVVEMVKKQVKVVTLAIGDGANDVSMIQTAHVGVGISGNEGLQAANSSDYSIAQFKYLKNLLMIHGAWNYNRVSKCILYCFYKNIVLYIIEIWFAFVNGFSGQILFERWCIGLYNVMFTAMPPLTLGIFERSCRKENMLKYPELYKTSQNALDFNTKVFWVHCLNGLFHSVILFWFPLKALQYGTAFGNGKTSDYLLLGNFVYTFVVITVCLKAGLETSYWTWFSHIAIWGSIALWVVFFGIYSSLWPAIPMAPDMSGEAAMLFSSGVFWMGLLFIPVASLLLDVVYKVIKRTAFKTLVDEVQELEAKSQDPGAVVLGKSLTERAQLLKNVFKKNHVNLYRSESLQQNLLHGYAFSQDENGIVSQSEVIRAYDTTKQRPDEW
UniProt Q9Y512: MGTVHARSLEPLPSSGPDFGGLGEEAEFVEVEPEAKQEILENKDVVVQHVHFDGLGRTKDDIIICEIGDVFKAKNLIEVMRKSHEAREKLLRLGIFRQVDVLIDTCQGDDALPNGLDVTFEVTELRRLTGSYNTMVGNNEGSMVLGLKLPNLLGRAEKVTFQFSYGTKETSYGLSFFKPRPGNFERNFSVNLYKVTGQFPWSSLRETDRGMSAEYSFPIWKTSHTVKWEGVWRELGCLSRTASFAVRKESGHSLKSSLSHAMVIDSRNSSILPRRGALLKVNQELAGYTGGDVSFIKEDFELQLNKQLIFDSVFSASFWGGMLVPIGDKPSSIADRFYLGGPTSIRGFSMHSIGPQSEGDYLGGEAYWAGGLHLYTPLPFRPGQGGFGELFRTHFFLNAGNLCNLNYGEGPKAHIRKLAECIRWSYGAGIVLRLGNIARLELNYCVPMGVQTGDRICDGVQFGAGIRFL
UniProt Q9Y3P9: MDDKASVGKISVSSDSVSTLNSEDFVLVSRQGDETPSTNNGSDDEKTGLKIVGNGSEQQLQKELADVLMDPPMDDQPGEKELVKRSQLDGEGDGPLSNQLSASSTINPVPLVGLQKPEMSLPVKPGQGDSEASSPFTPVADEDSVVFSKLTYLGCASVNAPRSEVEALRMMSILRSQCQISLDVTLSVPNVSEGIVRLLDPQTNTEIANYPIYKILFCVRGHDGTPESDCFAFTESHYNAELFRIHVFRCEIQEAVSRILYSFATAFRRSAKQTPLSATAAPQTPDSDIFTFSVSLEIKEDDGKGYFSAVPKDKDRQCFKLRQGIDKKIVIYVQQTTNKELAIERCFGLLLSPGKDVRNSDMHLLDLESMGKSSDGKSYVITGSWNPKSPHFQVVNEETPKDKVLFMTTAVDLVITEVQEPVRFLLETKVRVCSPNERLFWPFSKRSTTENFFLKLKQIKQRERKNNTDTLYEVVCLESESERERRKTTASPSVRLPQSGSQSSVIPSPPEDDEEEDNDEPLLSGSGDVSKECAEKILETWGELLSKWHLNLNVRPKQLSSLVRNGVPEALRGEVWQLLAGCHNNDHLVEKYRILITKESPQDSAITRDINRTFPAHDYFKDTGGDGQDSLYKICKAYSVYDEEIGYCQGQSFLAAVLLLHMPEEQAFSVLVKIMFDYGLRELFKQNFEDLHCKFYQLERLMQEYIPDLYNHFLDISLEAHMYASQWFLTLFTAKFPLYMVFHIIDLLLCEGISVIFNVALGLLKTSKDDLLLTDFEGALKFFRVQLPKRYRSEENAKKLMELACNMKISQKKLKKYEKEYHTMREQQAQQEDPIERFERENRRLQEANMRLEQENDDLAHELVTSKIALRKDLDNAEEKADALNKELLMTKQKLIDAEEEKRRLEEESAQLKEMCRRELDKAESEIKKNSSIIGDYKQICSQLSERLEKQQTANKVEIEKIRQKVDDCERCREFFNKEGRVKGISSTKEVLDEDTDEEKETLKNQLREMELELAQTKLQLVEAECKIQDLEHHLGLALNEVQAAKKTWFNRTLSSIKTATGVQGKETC
UniProt Q9Y316: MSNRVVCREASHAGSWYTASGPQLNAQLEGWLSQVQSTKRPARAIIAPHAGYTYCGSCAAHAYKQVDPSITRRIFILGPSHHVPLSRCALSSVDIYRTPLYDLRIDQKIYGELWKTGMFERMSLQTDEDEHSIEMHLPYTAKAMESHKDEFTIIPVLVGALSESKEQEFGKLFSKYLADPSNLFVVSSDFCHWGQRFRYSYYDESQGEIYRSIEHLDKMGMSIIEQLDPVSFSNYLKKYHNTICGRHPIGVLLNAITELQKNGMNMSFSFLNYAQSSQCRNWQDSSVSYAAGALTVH

Compound: Nc1ncnc2c1ncn2[C@@H]1O[C@H](COP(=O)(O)OP(=O)(O)OP(=O)(O)O)[C@@H](O)[C@H]1O [adenosine triphosphate]
Test: NP40-soluble protein abundance relative to vehicle (solubility fold change) (ratio); higher = more soluble protein in presence of ATP
Outline: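 Crude Jurkat lysate, prepared by Dounce homogenisation, was exposed to eight concentrations from 0.1 to 10 mM for 10 min at room temperature and then 3 min at 37 °C. Solubilisation used 0.8% NP40 with benzonase for 60 min at 4 °C, followed by ultracentrifugation and TMT labelling of the supernatant for LC-MS/MS. After vsn normalisation of intensities, each value is the fold change against the detergent-processed vehicle within each replicate, across three independent experiments.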

Target	NP40-soluble protein abundance (concentration: 1mM)	NP40-soluble protein abundance (concentration: 2mM)	NP40-soluble protein abundance (concentration: 4mM)	NP40-soluble protein abundance (concentration: 6mM)	NP40-soluble protein abundance (concentration: 8mM)	NP40-soluble protein abundance (concentration: 10mM)
UniProt Q9Y448 and related entries	0.866 ± 0.12	0.894 ± 0.085	0.908 ± 0.061	0.943 ± 0.077	0.892 ± 0.097	0.874 ± 0.089
CARHSP1 (UniProt Q9Y2V2)	0.885 ± 0.051	0.893 ± 0.029	0.851 ± 0.038	0.864 ± 0.024	0.85 ± 0.047	0.813 ± 0.051
X5CMH5 and related entries (UniProt Q03519)	1.07 ± 0.071	1.1 ± 0.057	1.09 ± 0.084	0.986 ± 0.11	1.06 ± 0.034	1.06 ± 0.023
UniProt Q9Y5S9 and related entries	0.959 ± 0.023	0.978 ± 0.023	0.918 ± 0.028	1 ± 0.032	0.961 ± 0.082	0.957 ± 0.033
MRPS23 (UniProt Q9Y3D9)	1.01 ± 0.14	0.903 ± 0.13	0.908 ± 0.14	0.877 ± 0.25	0.876 ± 0.16	0.806 ± 0.14
TELO2 (UniProt Q9Y4R8)	1.04 ± 0.12	1 ± 0.058	0.981 ± 0.029	0.933 ± 0.06	0.994 ± 0.048	0.991 ± 0.05
ENPP4 (UniProt Q9Y6X5)	1.05 ± 0.042	1.06 ± 0.034	1.03 ± 0.011	1.01 ± 0.063	1.01 ± 0.011	0.959 ± 0.054
CD2AP (UniProt Q9Y5K6)	0.9636 ± 0.002	0.947 ± 0.012	0.918 ± 0.021	0.978 ± 0.034	0.927 ± 0.041	0.93 ± 0.028
UniProt Q9Y371 and related entries	0.934 ± 0.028	0.925 ± 0.013	0.928 ± 0.015	0.973 ± 0.02	0.922 ± 0.03	0.916 ± 0.053
UniProt Q9Y2V7 and related entries	0.995 ± 0.036	0.99 ± 0.02	0.985 ± 0.022	0.943 ± 0.048	0.962 ± 0.015	0.966 ± 0.05
CNPY2 (UniProt Q9Y2B0)	0.959 ± 0.086	0.943 ± 0.04	0.91 ± 0.027	0.971 ± 0.05	0.9114 ± 0.0072	0.859 ± 0.053
UniProt Q9Y3Q8 and related entries	0.982 ± 0.1	0.952 ± 0.05	0.954 ± 0.092	0.952 ± 0.11	0.919 ± 0.05	0.909 ± 0.019
SH3BP1 (UniProt Q9Y3L3)	0.974 ± 0.045	0.969 ± 0.028	0.962 ± 0.038	0.972 ± 0.01	0.948 ± 0.042	0.945 ± 0.023
UniProt Q9Y333	0.957 ± 0.031	0.985 ± 0.043	0.9 ± 0.04	0.987 ± 0.024	0.865 ± 0.035	0.928 ± 0.04
NOC2L (UniProt Q9Y3T9)	1.04 ± 0.026	1.04 ± 0.015	1.08 ± 0.023	1.08 ± 0.027	1.148 ± 0.01	1.22 ± 0.044
CHCHD2 (UniProt Q9Y6H1)	0.961 ± 0.075	0.926 ± 0.099	0.958 ± 0.039	0.958 ± 0.12	0.865 ± 0.12	0.849 ± 0.093
ORC6 (UniProt Q9Y5N6)	0.954 ± 0.033	0.939 ± 0.044	0.931 ± 0.04	0.961 ± 0.061	0.933 ± 0.026	0.93 ± 0.012
SEC23IP (UniProt Q9Y6Y8)	0.9694 ± 0.0028	0.934 ± 0.034	0.928 ± 0.027	0.943 ± 0.02	0.927 ± 0.02	0.9191 ± 0.008
UniProt Q9Y2Y0 and related entries	1.01 ± 0.056	1.03 ± 0.066	1.01 ± 0.073	0.981 ± 0.093	0.969 ± 0.056	0.974 ± 0.091
UniProt Q9Y606 and related entries	0.98 ± 0.045	1.01 ± 0.039	0.989 ± 0.033	0.938 ± 0.021	0.961 ± 0.047	0.983 ± 0.031

Target	NP40-soluble protein abundance (concentration: 1mM)	NP40-soluble protein abundance (concentration: 2mM)	NP40-soluble protein abundance (concentration: 4mM)	NP40-soluble protein abundance (concentration: 6mM)	NP40-soluble protein abundance (concentration: 8mM)	NP40-soluble protein abundance (concentration: 10mM)
SNX8 (UniProt Q9Y5X2)	1.05 ± 0.087	1.03 ± 0.038	1.05 ± 0.071	1.04 ± 0.03	1 ± 0.054	1.02 ± 0.068
F11R (UniProt Q9Y624)	0.924 ± 0.081	0.929 ± 0.049	0.933 ± 0.1	0.949 ± 0.085	0.88 ± 0.051	0.902 ± 0.1
DIS3 (UniProt Q9Y2L1)	1.03 ± 0.085	0.993 ± 0.083	0.978 ± 0.072	0.95 ± 0.096	1.03 ± 0.056	0.997 ± 0.056
ARFGEF2 (UniProt Q9Y6D5)	1.03 ± 0.019	0.991 ± 0.014	0.973 ± 0.015	1.01 ± 0.02	0.993 ± 0.012	1.03 ± 0.042
UniProt Q9Y4G8 and related entries	0.976 ± 0.1	0.942 ± 0.051	1.02 ± 0.092	1.02 ± 0.086	0.945 ± 0.051	0.972 ± 0.054
TIMM9 (UniProt Q9Y5J7)	0.947 ± 0.055	0.926 ± 0.096	0.975 ± 0.046	1.02 ± 0.12	0.88 ± 0.013	0.853 ± 0.095
POLR3K (UniProt Q9Y2Y1)	0.96 ± 0.068	0.907 ± 0.049	1.05 ± 0.14	0.977 ± 0.19	0.8941 ± 0.0074	1 ± 0.074
UniProt Q9Y3U8	1.03 ± 0.11	1.05 ± 0.081	1.08 ± 0.13	1.01 ± 0.11	0.77 ± 0.13	1.07 ± 0.08
ARIH1 (UniProt Q9Y4X5)	1.02 ± 0.087	1.01 ± 0.086	0.988 ± 0.069	0.952 ± 0.11	1 ± 0.057	0.995 ± 0.058
TMED7 (UniProt Q9Y3B3)	1.08 ± 0.011	1.03 ± 0.081	1.06 ± 0.098	0.947 ± 0.16	0.979 ± 0.027	1.03 ± 0.036
RCL1 (UniProt Q9Y2P8)	1.01 ± 0.15	1.03 ± 0.085	1 ± 0.1	0.994 ± 0.093	1.04 ± 0.098	1.1 ± 0.077
RRP7A (UniProt Q9Y3A4)	0.988 ± 0.046	0.93 ± 0.12	1 ± 0.049	1.09 ± 0.12	1.1 ± 0.056	1.27 ± 0.21
UniProt Q9Y2I7 and related entries	0.979 ± 0.023	0.98 ± 0.02	0.987 ± 0.013	0.96 ± 0.019	0.97 ± 0.027	0.971 ± 0.044
UniProt Q9Y4D1 and related entries	0.964 ± 0.078	0.973 ± 0.07	0.967 ± 0.06	0.962 ± 0.048	1 ± 0.016	1.005 ± 0.0064
UniProt Q9Y2S6	0.864 ± 0.083	0.753 ± 0.078	0.73 ± 0.12	0.802 ± 0.14	0.691 ± 0.085	0.759 ± 0.2
UniProt Q9Y679 and related entries	0.982 ± 0.093	1.01 ± 0.099	1.04 ± 0.094	1.05 ± 0.1	1.06 ± 0.096	1.06 ± 0.11
UniProt Q9Y4B5 and related entries	1.07 ± 0.098	1.11 ± 0.085	1.09 ± 0.063	1.12 ± 0.046	1.08 ± 0.055	1.1 ± 0.021
FBXO7 (UniProt Q9Y3I1)	0.866 ± 0.09	0.893 ± 0.055	0.861 ± 0.087	0.868 ± 0.043	0.893 ± 0.056	0.902 ± 0.033
MRPS16 (UniProt Q9Y3D3)	0.953 ± 0.011	0.907 ± 0.086	0.874 ± 0.078	0.849 ± 0.1	0.856 ± 0.11	0.783 ± 0.083
THRAP3 (UniProt Q9Y2W1)	1.23 ± 0.082	1.33 ± 0.059	1.4 ± 0.065	1.53 ± 0.08	1.51 ± 0.042	1.54 ± 0.043

Target	NP40-soluble protein abundance (concentration: 1mM)	NP40-soluble protein abundance (concentration: 2mM)	NP40-soluble protein abundance (concentration: 4mM)	NP40-soluble protein abundance (concentration: 6mM)	NP40-soluble protein abundance (concentration: 8mM)	NP40-soluble protein abundance (concentration: 10mM)
UniProt Q9Y4B6 and related entries	1.009 ± 0.00039	0.988 ± 0.024	0.985 ± 0.049	0.992 ± 0.074	1.03 ± 0.065	1.01 ± 0.026
UniProt Q9Y2H6 and related entries	1.03 ± 0.059	1.05 ± 0.041	1.04 ± 0.063	1.04 ± 0.037	1.02 ± 0.043	1.04 ± 0.054
UniProt Q9Y680 and related entries	1.03 ± 0.048	1.02 ± 0.014	0.991 ± 0.018	1.01 ± 0.019	0.976 ± 0.059	0.934 ± 0.045
AFG3L2 (UniProt Q9Y4W6)	1.01 ± 0.028	1.01 ± 0.018	0.983 ± 0.031	1.03 ± 0.014	1.03 ± 0.044	1.02 ± 0.018
UniProt Q9Y4P8 and related entries	1.02 ± 0.11	1.07 ± 0.077	1.05 ± 0.12	0.949 ± 0.08	0.933 ± 0.077	1 ± 0.12
TMED5 (UniProt Q9Y3A6)	0.997 ± 0.12	0.981 ± 0.068	0.941 ± 0.037	0.895 ± 0.12	0.954 ± 0.081	0.94 ± 0.054
UniProt Q9Y2Q0 and related entries	1.01 ± 0.045	0.995 ± 0.06	0.96 ± 0.09	0.995 ± 0.068	0.947 ± 0.062	0.999 ± 0.037
WBP11 (UniProt Q9Y2W2)	1 ± 0.049	1.07 ± 0.026	1.07 ± 0.018	1.14 ± 0.016	1.12 ± 0.05	1.14 ± 0.027
UniProt Q9Y2X7 and related entries	0.973 ± 0.025	0.981 ± 0.014	0.966 ± 0.031	0.975 ± 0.032	0.953 ± 0.044	0.963 ± 0.048
GSTK1 (UniProt Q9Y2Q3)	1 ± 0.065	0.994 ± 0.04	0.975 ± 0.074	0.932 ± 0.088	0.946 ± 0.057	0.94 ± 0.057
SAMM50 (UniProt Q9Y512)	1.05 ± 0.15	0.984 ± 0.077	0.946 ± 0.075	0.84 ± 0.076	0.97 ± 0.016	0.961 ± 0.072
RABGAP1 (UniProt Q9Y3P9)	0.968 ± 0.017	0.96 ± 0.018	0.961 ± 0.015	0.967 ± 0.043	0.963 ± 0.01	0.952 ± 0.034
UniProt Q9Y5V3 and related entries	1.03 ± 0.099	1.01 ± 0.099	1.01 ± 0.079	1.07 ± 0.23	1.03 ± 0.095	1.05 ± 0.12
UniProt Q9Y2X0-2|Q9Y2X0-3|Q9Y2X0	1.14 ± 0.14	1.04 ± 0.086	1.07 ± 0.093	0.937 ± 0.014	1.09 ± 0.074	1.01 ± 0.064
USP20 (UniProt Q9Y2K6)	1 ± 0.036	0.944 ± 0.088	0.966 ± 0.052	0.951 ± 0.087	0.986 ± 0.073	0.991 ± 0.055
UniProt Q9Y3B7 and related entries	1.1 ± 0.24	0.945 ± 0.1	1.06 ± 0.18	1.02 ± 0.35	1.08 ± 0.22	0.852 ± 0.21
UniProt Q9Y2G2-4|Q9Y2G2-5	0.902 ± 0.08	0.912 ± 0.033	0.937 ± 0.057	1 ± 0.031	0.944 ± 0.074	0.929 ± 0.093
UniProt Q9Y316 and related entries	1 ± 0.1	0.976 ± 0.099	0.976 ± 0.1	0.951 ± 0.17	0.995 ± 0.12	0.972 ± 0.052
SPIN1 (UniProt Q9Y657)	1.13 ± 0.065	1.16 ± 0.054	1.21 ± 0.046	1.27 ± 0.013	1.22 ± 0.055	1.25 ± 0.044
UniProt Q9Y4E5 and related entries	1.12 ± 0.072	1.09 ± 0.034	1.17 ± 0.052	1.2 ± 0.018	1.269 ± 0.0063	1.28 ± 0.056

Single records (already shown). Order of values: NP40-soluble protein abundance (concentration: 1mM)	NP40-soluble protein abundance (concentration: 2mM)	NP40-soluble protein abundance (concentration: 4mM)	NP40-soluble protein abundance (concentration: 6mM)	NP40-soluble protein abundance (concentration: 8mM)	NP40-soluble protein abundance (concentration: 10mM)
UniProt Q9Y2X0-2|Q9Y2X0-3|Q9Y2X0 reads 1.14 ± 0.14	1.04 ± 0.086	1.07 ± 0.093	0.937 ± 0.014	1.09 ± 0.074	1.01 ± 0.064
CD2AP (UniProt Q9Y5K6) reads 0.9636 ± 0.002	0.947 ± 0.012	0.918 ± 0.021	0.978 ± 0.034	0.927 ± 0.041	0.93 ± 0.028
UniProt Q9Y3B7 and related entries reads 1.1 ± 0.24	0.945 ± 0.1	1.06 ± 0.18	1.02 ± 0.35	1.08 ± 0.22	0.852 ± 0.21
